The list shows a part of the results. Most values lie at the level of the controls, where differences are scatter.

Chains of the proteins cited; added tags and fusions are not shown. Lines headed by an entry give the natural chain unless they say otherwise; changes in a name come on top.
UniProt Q9DCA5: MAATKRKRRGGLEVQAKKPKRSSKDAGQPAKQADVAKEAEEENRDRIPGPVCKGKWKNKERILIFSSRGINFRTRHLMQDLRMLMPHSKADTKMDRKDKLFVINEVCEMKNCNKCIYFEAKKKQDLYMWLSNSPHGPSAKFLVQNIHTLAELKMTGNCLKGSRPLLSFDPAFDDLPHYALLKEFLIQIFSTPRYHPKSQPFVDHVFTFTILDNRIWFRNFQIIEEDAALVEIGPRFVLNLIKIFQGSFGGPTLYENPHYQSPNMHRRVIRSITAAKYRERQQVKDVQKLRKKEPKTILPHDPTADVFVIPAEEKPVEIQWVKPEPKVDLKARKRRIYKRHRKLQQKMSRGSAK
UniProt Q9DBD2: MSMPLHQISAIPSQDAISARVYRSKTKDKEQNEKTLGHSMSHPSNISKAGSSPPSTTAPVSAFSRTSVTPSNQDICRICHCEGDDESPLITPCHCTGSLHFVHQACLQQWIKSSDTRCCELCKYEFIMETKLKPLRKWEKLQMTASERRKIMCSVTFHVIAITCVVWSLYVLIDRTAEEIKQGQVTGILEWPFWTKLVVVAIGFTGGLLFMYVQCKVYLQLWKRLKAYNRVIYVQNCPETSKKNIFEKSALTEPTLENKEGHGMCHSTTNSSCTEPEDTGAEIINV
UniProt Q9DB94: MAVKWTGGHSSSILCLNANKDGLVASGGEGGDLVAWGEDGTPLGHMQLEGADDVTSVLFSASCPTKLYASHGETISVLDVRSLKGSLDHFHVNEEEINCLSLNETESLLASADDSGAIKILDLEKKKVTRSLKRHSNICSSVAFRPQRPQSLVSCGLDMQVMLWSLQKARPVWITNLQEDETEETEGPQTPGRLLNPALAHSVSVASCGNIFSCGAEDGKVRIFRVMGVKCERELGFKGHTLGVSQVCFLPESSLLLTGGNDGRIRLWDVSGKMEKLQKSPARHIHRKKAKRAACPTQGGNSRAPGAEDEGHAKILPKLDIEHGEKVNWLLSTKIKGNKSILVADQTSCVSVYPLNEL
UniProt Q9DC63: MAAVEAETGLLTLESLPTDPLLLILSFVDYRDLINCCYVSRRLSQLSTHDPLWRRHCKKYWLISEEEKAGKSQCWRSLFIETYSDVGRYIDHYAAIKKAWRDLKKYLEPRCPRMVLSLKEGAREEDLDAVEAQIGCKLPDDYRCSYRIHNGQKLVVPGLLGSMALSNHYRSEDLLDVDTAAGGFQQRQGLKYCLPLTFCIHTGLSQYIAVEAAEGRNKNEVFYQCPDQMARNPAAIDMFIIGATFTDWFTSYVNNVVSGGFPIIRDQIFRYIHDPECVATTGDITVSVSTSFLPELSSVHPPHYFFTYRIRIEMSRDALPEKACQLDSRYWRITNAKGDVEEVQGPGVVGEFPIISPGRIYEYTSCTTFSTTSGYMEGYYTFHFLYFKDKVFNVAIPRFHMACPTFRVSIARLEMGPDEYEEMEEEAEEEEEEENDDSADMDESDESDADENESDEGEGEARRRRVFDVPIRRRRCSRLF
UniProt Q9DB10: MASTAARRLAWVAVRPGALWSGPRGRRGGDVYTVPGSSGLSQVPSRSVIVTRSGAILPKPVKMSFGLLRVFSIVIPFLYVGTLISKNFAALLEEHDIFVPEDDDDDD
UniProt Q9EQP2: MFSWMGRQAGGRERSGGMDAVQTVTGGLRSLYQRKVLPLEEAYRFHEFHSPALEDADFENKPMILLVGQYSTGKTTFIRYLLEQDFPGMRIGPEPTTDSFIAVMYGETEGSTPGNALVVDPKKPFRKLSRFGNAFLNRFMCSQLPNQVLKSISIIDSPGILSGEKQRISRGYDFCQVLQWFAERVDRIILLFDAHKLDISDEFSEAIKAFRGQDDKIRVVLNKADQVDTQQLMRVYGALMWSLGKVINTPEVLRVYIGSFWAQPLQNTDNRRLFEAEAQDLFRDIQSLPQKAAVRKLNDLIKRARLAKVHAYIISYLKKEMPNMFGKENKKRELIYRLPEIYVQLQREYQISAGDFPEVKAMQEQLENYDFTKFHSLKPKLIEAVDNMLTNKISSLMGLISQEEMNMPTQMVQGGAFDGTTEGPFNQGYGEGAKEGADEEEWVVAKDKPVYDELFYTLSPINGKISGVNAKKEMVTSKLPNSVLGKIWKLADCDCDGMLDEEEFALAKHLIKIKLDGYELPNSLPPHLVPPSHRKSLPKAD
UniProt Q9DBG3: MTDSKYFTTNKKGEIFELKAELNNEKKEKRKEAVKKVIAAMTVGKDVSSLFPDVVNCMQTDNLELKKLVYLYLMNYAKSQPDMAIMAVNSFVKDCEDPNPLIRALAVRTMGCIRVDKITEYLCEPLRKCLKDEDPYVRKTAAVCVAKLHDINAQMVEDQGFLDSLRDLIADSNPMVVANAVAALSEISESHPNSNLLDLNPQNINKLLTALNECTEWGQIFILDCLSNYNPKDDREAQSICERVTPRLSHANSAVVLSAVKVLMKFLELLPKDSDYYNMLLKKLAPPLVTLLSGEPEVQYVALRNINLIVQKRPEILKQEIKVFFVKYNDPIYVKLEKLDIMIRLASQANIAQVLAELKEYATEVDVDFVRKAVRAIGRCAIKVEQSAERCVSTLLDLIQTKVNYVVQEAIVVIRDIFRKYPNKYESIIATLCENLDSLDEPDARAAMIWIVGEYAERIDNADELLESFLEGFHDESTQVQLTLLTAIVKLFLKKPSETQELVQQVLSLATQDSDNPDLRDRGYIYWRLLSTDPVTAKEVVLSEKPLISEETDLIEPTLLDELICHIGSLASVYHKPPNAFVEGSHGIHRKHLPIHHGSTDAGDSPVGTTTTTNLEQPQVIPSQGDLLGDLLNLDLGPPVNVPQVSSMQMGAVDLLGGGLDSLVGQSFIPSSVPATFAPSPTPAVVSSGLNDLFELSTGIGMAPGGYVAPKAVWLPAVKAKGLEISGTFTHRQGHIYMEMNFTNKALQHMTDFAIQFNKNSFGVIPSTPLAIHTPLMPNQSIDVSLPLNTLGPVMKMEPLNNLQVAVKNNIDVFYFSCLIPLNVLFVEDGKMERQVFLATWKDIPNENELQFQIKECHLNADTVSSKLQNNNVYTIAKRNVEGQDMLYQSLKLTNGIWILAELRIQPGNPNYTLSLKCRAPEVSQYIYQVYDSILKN
UniProt Q9EPA7, whole entry: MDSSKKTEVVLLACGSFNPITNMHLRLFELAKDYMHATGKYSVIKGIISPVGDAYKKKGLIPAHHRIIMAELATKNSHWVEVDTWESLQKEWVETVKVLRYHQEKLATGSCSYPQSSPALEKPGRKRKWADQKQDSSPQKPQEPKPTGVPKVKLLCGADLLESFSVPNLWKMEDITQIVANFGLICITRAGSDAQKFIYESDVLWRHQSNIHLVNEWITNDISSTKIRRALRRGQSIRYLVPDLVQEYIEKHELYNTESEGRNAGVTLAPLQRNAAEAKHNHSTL
UniProt Q9DC50: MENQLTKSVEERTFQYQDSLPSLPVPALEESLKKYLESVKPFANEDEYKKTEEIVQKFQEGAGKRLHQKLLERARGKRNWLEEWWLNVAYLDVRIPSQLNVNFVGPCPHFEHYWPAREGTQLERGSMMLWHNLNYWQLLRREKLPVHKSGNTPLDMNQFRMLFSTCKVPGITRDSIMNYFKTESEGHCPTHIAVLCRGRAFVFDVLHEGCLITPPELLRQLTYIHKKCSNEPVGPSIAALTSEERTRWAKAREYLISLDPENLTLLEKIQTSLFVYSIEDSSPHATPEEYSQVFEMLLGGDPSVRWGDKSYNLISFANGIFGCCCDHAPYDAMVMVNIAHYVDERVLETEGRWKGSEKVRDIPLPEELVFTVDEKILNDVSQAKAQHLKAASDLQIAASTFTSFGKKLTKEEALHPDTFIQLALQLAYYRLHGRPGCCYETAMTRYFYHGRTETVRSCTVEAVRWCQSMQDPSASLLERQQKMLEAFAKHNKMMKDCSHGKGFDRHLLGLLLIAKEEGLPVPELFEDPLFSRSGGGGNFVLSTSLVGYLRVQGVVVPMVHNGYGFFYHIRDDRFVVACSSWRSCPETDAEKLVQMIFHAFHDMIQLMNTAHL
UniProt Q9EPU0: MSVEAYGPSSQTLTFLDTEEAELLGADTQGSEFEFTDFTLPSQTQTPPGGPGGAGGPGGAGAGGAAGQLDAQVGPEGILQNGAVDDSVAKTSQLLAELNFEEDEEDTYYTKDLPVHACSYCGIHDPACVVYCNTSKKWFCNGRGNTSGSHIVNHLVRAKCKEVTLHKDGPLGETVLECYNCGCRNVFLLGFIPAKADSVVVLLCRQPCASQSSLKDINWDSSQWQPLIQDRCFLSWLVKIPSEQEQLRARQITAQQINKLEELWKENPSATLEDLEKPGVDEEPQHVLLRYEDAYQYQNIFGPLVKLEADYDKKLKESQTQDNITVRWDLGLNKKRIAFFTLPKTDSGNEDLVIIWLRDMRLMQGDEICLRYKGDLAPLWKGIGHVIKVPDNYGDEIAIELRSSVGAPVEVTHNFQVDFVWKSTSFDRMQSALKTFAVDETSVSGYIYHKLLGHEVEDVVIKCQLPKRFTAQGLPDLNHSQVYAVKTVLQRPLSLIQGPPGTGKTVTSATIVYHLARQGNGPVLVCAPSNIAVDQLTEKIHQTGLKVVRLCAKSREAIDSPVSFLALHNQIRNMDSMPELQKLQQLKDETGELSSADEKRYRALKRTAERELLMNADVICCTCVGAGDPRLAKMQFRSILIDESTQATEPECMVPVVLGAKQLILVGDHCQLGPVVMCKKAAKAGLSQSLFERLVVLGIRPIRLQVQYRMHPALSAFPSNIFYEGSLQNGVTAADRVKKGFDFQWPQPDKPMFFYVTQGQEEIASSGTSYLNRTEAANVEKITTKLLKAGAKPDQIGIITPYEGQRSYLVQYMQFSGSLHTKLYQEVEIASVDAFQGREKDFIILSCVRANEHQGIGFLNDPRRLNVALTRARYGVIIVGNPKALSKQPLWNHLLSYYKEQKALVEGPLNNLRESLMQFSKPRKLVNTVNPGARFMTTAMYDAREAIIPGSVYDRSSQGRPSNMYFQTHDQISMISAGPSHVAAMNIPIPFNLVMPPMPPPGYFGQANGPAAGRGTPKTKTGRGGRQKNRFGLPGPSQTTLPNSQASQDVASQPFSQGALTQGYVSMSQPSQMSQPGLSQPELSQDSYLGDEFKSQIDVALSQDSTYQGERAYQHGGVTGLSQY
UniProt Q9DBN1: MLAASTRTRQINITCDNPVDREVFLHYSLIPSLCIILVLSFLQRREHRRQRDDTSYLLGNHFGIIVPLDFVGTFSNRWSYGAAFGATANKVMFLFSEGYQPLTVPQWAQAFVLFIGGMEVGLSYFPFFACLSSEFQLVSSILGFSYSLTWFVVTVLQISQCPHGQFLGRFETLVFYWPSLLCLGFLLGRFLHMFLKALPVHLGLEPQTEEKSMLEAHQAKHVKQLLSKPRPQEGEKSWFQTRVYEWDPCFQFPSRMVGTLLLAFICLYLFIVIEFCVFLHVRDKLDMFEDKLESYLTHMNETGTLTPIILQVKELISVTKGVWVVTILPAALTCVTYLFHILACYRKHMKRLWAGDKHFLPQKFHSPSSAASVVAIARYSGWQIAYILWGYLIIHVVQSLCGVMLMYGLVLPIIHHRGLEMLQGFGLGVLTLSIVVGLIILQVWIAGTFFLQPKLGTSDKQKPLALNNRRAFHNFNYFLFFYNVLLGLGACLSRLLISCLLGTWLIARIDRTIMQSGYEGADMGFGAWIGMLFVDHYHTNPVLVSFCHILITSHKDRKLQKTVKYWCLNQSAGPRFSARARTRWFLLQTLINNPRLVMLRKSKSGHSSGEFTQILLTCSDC

Compound in the assay: CN[C@@H]1C[C@H]2O[C@@](C)([C@@H]1OC)n1c3ccccc3c3c4c(c5c6ccccc6n2c5c31)C(=O)NC4 [staurosporine]
Description: log2 fold change of tryptic peptide abundance, ligand vs vehicle (limited proteolysis) (log2 ratio); higher = more trypsin-susceptible (destabilized). The following applies: ligand concentration: 20 uM; sample: mouse liver crude lysate; replicate design: treated separately.
“UniProt Q9DCA5 (peptide sequence: RGGLEVQAK, peptide start residue: 9)”: the log2 fold change is -0.359.

For “UniProt Q9DBD2 (peptide sequence: SALTEPTLENK, peptide start residue: 249)”, the log2 fold change is -0.127.

Regarding “UniProt Q9DB94 (peptide sequence: LDIEHGEK, peptide start residue: 319)”, the log2 fold change is -0.264.

Consider “UniProt Q9DC63 (peptide sequence: LVVPGLLGSMALSNHYR, peptide start residue: 154)”, for which the log2 fold change is 0.345.

With “UniProt Q9DB10 (peptide sequence: PGALWSGPRGR, peptide start residue: 16)”, the log2 fold change came out at 0.526.

As for “UniProt Q9EQP2 (peptide sequence: VYGALMWSLGK, peptide start residue: 232)”, the log2 fold change is -2.53.

For the target “UniProt Q9DBG3 (peptide sequence: LLSTDPVTAK, peptide start residue: 529)”, the log2 fold change is -0.292.

Consider “UniProt Q9EPA7 (peptide sequence: QDSSPQKPQEPK, peptide start residue: 134)”, for which the log2 fold change turned out to be 0.306.

On to “UniProt Q9DC50 (peptide sequence: YLESVKPFANEDEYKK, peptide start residue: 35)”, for which the log2 fold change is -0.699.

“UniProt Q9EPU0 (peptide sequence: LMQGDEICLR, peptide start residue: 362)”: the log2 fold change was -0.394.

Turning to “UniProt Q9DBN1 (peptide sequence: QLLSKPRPQEGEK, peptide start residue: 224)”, the log2 fold change was determined as 0.527.

Source of the values: the supplement of paper PMC12819154, “High-throughput peptide-centric local stability assay extends protein–ligand identification to membrane proteins, tissues and bacteria” (Nature Structural & Molecular Biology, 2025).
